The assay has as its target extracellular domain of rhesus monkey BCMA (rhesus monkey) (UniProt F7FFA0). As to the kind of experiment: Octet BLI; Fab 200 nM.

The chains behind the UniProt entries cited, without tags or fusion partners. Where a name states a change or a piece, a line headed by the entry shows the natural chain unless it says otherwise. A line that says so, or that is headed by a name, gives the form on record, which may keep a tag or linker.
extracellular domain of rhesus monkey BCMA (F7FFA0, form named): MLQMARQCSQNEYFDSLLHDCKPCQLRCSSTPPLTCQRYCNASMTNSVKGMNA

No constants are given. Whether binding was seen depends on the method and setting. Some entries that bind do so weakly or less than the wild type.

B1: AB200-R1a-Fab_Vk6 (Fab, V domains shown)
VH: QVQLVQSGAEVKKPGSSVKVSCKASGGTFSNYWMHWVRQAPGQGLEWMGATYRGHSDTYYNQKFKGRVTITADKSTSTAYMELSSLRSEDTAVYYCARGAIYHGYDVLDNWGQGTLVTVSS
VL: DIQMTQSPSSLSASVGDRVTITCSATQDISNYLNWYQQKPGKAPKLLIYFTSNLQSGVPSRFSGSGSGTDFTLTISSLQPEDFATYYCQQYRKLPWTFGQGTKLEIKR
notes: also called AB200 kappa variant 6; AB200_Vk6_Fab
In the case of B1, the binding result is recorded as “binds”.

(Values after patent publication US20240327535A1 (EISAI R AND D MANAGEMENT, published 2024).)
